Here are results for two molecules from paper PMC9166362, “Early midcell localization of Escherichia coli PBP4 supports the function of peptidoglycan amidases” (PLoS Genetics, 2022).

Amino acid sequences for entries named in this document (tags omitted). Residues count along the entry.
UniProt P24228, residues 21-477: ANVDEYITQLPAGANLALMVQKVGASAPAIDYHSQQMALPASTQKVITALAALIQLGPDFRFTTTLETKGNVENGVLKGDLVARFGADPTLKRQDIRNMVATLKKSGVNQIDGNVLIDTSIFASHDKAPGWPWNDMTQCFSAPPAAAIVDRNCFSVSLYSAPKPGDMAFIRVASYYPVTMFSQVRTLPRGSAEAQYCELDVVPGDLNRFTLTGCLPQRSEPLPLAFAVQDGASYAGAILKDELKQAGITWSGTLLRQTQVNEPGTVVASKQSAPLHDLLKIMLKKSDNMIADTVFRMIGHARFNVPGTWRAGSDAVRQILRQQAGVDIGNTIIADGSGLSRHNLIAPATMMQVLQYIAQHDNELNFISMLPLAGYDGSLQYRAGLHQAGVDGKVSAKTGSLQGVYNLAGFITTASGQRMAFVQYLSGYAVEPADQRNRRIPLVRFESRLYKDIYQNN

In this assay the target is PBP4, endogenous in E. coli BW25113 cells (E. coli (endogenous in BW25113)) (UniProt P24228). The experiment in a line: cross-linking + co-IP; growing BW25113 cells cross-linked with DTSSP; solubilised membrane extract immunoprecipitated with purified anti-PBP4 antibody; cross-linker cleaved by reducing agent; partner detected by Western blot; controls ΔdacB cells and no antibody.

No constants are given. Whether binding was seen depends on the method and setting. Binding seen in cells or lysates may run through a third protein. Some entries that bind do so weakly or less than the wild type.

B1: LpoA, endogenous in E. coli BW25113 cells (protein, UniProt P45464 27-678)
chain: CGTHTPDQSTAYMQGTAQADSAFYLQQMQQSSDDTRINWQLLAIRALVKEGKTGQAVELFNQLPQELNDAQRREKTLLAVEIKLAQKDFAGAQNLLAKITPADLEQNQQARYWQAKIDASQGRPSIDLLRALIAQEPLLGAKEKQQNIDATWQALSSMTQEQANTLVINADENILQGWLDLQRVWFDNRNDPDMMKAGIADWQKRYPNNPGAKMLPTQLVNVKAFKPASTNKIALLLPLNGQAAVFGRTIQQGFEAAKNIGTQPVAAQVAAAPAADVAEQPQPQTVDGVASPAQASVSDLTGEQPAAQPVPVSAPATSTAAVSAPANPSAELKIYDTSSQPLSQILSQVQQDGASIVVGPLLKNNVEELLKSNTPLNVLALNQPENIENRVNICYFALSPEDEARDAARHIRDQGKQAPLVLIPRSSLGDRVANAFAQEWQKLGGGTVLQQKFGSTSELRAGVNGGSGIALTGSPITLRATTDSGMTTNNPTLQTTPTDDQFTNNGGRVDAVYIVATPGEIAFIKPMIAMRNGSQSGATLYASSRSAQGTAGPDFRLEMEGLQYSEIPMLAGGNLPLMQQALSAVNNDYSLARMYAMGVDAWSLANHFSQMRQVQGFEINGNTGSLTANPDCVINRNLSWLQYQQGQVVPVS
In the case of B1, the binding result is given as “binds”.

B2: PBP1A, purified (full length His-PBP1A) (enzyme)
chain: MKFVKYFLILAVCCILLGAGSIYGLYRYIEPQLPDVATLKDVRLQIPMQIYSADGELIAQYGEKRRIPVTLDQIPPEMVKAFIATEDSRFYEHHGVDPVGIFRAASVALFSGHASQGASTITQQLARNFFLSPERTLMRKIKEVFLAIRIEQLLTKDEILELYLNKIYLGYRAYGVGAAAQVYFGKTVDQLTLNEMAVIAGLPKAPSTFNPLYSMDRAVARRNVVLSRMLDEGYITQQQFDQTRTEAINANYHAPEIAFSAPYLSEMVRQEMYNRYGESAYEDGYRIYTTITRKVQQAAQQAVRNNVLDYDMRHGYRGPANVLWKVGESAWDNNKITDTLKALPTYGPLLPAAVTSANPQQATAMLADGSTVALSMEGVRWARPYRSDTQQGPTPRKVTDVLQTGQQIWVRQVGDAWWLAQVPEVNSALVSINPQNGAVMALVGGFDFNQSKFNRATQALRQVGSNIKPFLYTAAMDKGLTLASMLNDVPISRWDASAGSDWQPKNSPPQYAGPIRLRQGLGQSKNVVMVRAMRAMGVDYAAEYLQRFGFPAQNIVHTESLALGSASFTPMQVARGYAVMANGGFLVDPWFISKIENDQGGVIFEAKPKVACPECDIPVIYGDTQKSNVLENNDVEDVAISREQQNVSVPMPQLEQANQALVAKTGAQEYAPHVINTPLAFLIKSALNTNIFGEPGWQGTGWRAGRDLQRRDIGGKTGTTNSSKDAWFSGYGPGVVTSVWIGFDDHRRNLGHTTASGAIKDQISGYEGGAKSAQPAWDAYMKAVLEGVPEQPLTPPPGIVTVNIDRSTGQLANGGNSREEYFIEGTQPTQQAVHEVGTTIIDNGEAQELF
On to B2, for which the binding result is listed as “binds”.
